This is one part of the list. These are raw signals, not scaled to a control.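 First-pass screen: polymyxin B was added at a level that permeabilizes the Salmonella outer membrane while sparing the inner membrane. DMSO wells, with and without polymyxin B, defined maximum growth. Because plates differed from one another, each plate's data were ranked separately and the compounds with the lowest OD600 were carried forward as hits.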
Tested on: Salmonella enterica serovar Typhimurium SL1344
Assay: bacterial growth OD600 after 18 h with compound and polymyxin B; higher = more bacterial growth (less inhibition)
Conditions: 50 µM, Mueller-Hinton broth

Row | SMILES | bacterial growth OD600 (polymyxin B 0.75 µg/mL) | bacterial growth OD600 (polymyxin B 1 µg/mL)
1 | O=C(CCOc1ccccc1)Nc1cnn(CC(=O)NC(Cn2cccn2)c2ccccc2)c1 (stereo not given) | 0.957 | –
2 | O=C(NC1CC(=O)N(CCCc2ccccc2)C1)c1ccsc1 (stereo not given) | – | 1.19
3 | O=C(Nc1cccc(-n2cccn2)c1)C1CCCN1CC1CC1 (stereo not given) | – | 0.996
4 | Cc1cnc(SCCN2CCOCC2)nc1C1CCCN(C(=O)COc2ccccc2Cl)C1 (stereo not given) | 0.499 | –
5 | O=C(NC(C1CC1)C1CC1)C1CCCN(C2CCN(Cc3ccccc3)CC2)C1 (stereo not given) | 0.876 | –
6 | COc1ccc(C(CC(=O)N2CCC(C(N)=O)CC2)c2ccccc2)cc1 (stereo not given) | – | 0.809
7 | CC(NC1CCN(c2ccc(NC(=O)c3cnccn3)cc2)CC1)c1cnn(-c2ccccc2)c1 (stereo not given) | 0.797 | –
8 | COCc1ccc(CN2CC[C@@H](N3CCN(c4ccccn4)CC3)[C@H](O)C2)o1 | – | 1.03
9 | CC(c1ccon1)N(C)C(=O)c1cc(Cn2ccc3ccccc32)[nH]n1 (stereo not given) | – | 0.899
10 | O=C(c1cccnc1)N1CCC(C2CCN(Cc3ccc(Cl)cc3)C2)CC1 (stereo not given) | – | 0.944
11 | CCn1ccnc1CN(C)c1nc2nonc2nc1NCc1cccs1 | – | 0.907
12 | COCCNC(=O)c1ccc(OC)cc1OC1CCN(C(C)CCSC)CC1 (stereo not given) | – | 1.21
13 | CCOC(=O)N1CCC(N2Cc3cc(C)ccc3OC(c3ccsc3)C2)CC1 (stereo not given) | 0.065 | –
14 | CCN1C(=O)CC(CC(=O)N2CCCC(c3ccccc3)CC2)(c2cccc(C(F)(F)F)c2)C1=O (stereo not given) | -0.001 | –
15 | C=CCC(=O)N1CCCC(CO)(Cc2ccc(F)cc2F)C1 (stereo not given) | – | 0.946
16 | Cn1ccnc1C(=O)N1CCC2(CCCN(Cc3ccccc3F)C2)C1 (stereo not given) | – | 0.759
17 | COCCN1CC(C(=O)NCc2nc(C)c3c(n2)CCCC3)CCC1=O (stereo not given) | – | 0.846
18 | COCc1ccc(CN2CCCC(C(=O)c3ccc(C(F)(F)F)cc3)C2)o1 (stereo not given) | – | 0.811
19 | CC(=O)C1CCCN(Cc2cnc(S(=O)(=O)CC(C)C)n2Cc2ccccc2)C1 (stereo not given) | – | 1.02
20 | OCC1(CCOc2ccccc2)CCN(Cc2ccccc2C(F)(F)F)CC1 | – | 0.76

Two compounds picked at random from those above, as already listed:
Row | SMILES | bacterial growth OD600 (polymyxin B 0.75 µg/mL) | bacterial growth OD600 (polymyxin B 1 µg/mL)
9 | CC(c1ccon1)N(C)C(=O)c1cc(Cn2ccc3ccccc32)[nH]n1 (stereo not given) | – | 0.899
10 | O=C(c1cccnc1)N1CCC(C2CCN(Cc3ccc(Cl)cc3)C2)CC1 (stereo not given) | – | 0.944
